{"source": "patent US20250000932A1", "about": "“DIAGNOSIS AND TREATMENT OF VA[…]” (University Of Maryland, Baltimore, priority 2023, published 2025)", "key": {"[1]": {"tested_on": "patients with catecholamine-resistant vasodilatory shock", "details": "cited from earlier work"}, "serum angiotensin I": {"tested_on": "serum angiotensin I", "assay": "ATHOS-3: serum angiotensin I concentration at baseline and 3 hours after start of study drug", "format": "in vivo, human"}, "serum renin": {"tested_on": "serum renin", "assay": "ATHOS-3: serum renin concentration at baseline and 3 hours after start of study drug", "format": "in vivo, human"}, "[2]": {"tested_on": "patients with catecholamine-resistant vasodilatory shock", "assay": "ATHOS-3: 28-day survival by baseline serum renin level", "format": "in vivo, human"}, "[3]": {"details": "baseline to 3 hours, P<0.0001 vs placebo"}, "[4]": {"details": "median, 3 hours after initiation of study drug"}}, "note": "Not every detail of the peptide structures is certain; ends, links or a residue may be inferred.", "data": [{"compound": "CC[C@H](C)[C@H](NC(=O)[C@H](Cc1ccc(O)cc1)NC(=O)[C@@H](NC(=O)[C@H](CCCNC(=N)N)NC(=O)[C@@H](N)CC(=O)O)C(C)C)C(=O)N[C@@H](Cc1c[nH]cn1)C(=O)N1CCC[C@H]1C(=O)N[C@@H](Cc1ccccc1)C(=O)O", "note": "[Angiotensin II, angiotensin II]", "values": [{"measurement": "mean arterial pressure", "setting": "[1]", "value": "increases mean arterial pressure"}, {"measurement": "median reduction in angiotensin I levels", "setting": "serum angiotensin I; [3]", "value": 39.7, "unit": "%"}, {"measurement": "Angiotensin I, Hour 3", "setting": "serum angiotensin I; [4]", "value": 133, "unit": "pg/mL"}, {"measurement": "Angiotensin I, Difference", "setting": "serum angiotensin I; median, hour 3 vs hour 0", "value": -76.7, "unit": "pg/mL"}, {"measurement": "Angiotensin I, Difference (%)", "setting": "serum angiotensin I; median, hour 3 vs hour 0", "value": "−39.7", "unit": "%"}, {"measurement": "median reduction in renin concentration", "setting": "serum renin; [3]", "value": 54.3, "unit": "%"}, {"measurement": "Renin, Hour 3", "setting": "serum renin; [4]", "value": 85.0, "unit": "pg/mL"}, {"measurement": "Renin, Difference", "setting": "serum renin; median, hour 3 vs hour 0", "value": -98.9, "unit": "pg/mL"}, {"measurement": "Renin, Difference %", "setting": "serum renin; median, hour 3 vs hour 0", "value": "−54.3", "unit": "%"}, {"measurement": "28-day mortality rate", "setting": "[2]; patients with renin levels above the population median", "value": 50.9, "unit": "%"}, {"measurement": "unadjusted HR, 28-day mortality vs placebo", "setting": "[2]; renin above the population median, 95% CI 0.34-0.89, P=0.013", "value": 0.55}, {"measurement": "HR, risk of mortality, multivariable analysis", "setting": "[2]; renin above the population median, 95% CI 0.39-0.98, P=0.0423", "value": 0.62}, {"measurement": "28-day mortality vs placebo", "setting": "[2]; serum renin levels below the population median", "value": "no statistically significant difference"}]}]}
